Test results: patent US20110251128A1 (The Board of Regents of the University of Texas System, priority 2010, published 2011)

By UniProt entry, the sequences of proteins in these tests, tags left out. Where a name states a change or a piece, a line headed by the entry shows the natural chain unless it says otherwise.
UniProt P62328: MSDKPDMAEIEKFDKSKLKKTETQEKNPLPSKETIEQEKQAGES

Legend:
[1] = general procedure: Fmoc solid-phase peptide synthesis; Wang resin (Novabiochem); HBTU/HOBt; conditions: conjugation step
[2] = system: adult human cardiomyocytes; assay: Uptake of nanogold labeled AGES into cardiomyocytes; format: cell-based; conditions: nanogold conjugate, ten minutes after external administration

Row | Substance | conjugation yield [1] [%] | intracellular localization in cardiomyocytes [2] | intracellular localization in cardiomyocytes ([2]; listed as Nanogold labeled AGES conjugate)
1 | protected chelator 1-AGES conjugate (SDKPDM; Thymosin beta-4 N-acetyl; UniProt P62328 2-7, looked up, fragment) | 55 | – | –
2 | nanogold labeled AGES: AGES peptide conjugated with mono-sulfo-hydroxi-succimido nanogold (Thymosin beta-4 nanogold label; UniProt P62328 41-44, looked up, fragment) | – | in the nuclei of adult human cardiomyocytes | enters the nucleus of adult human cardiomyocytes as early as ten minutes
